The record followed here is paper PMC8514949.

Sequences of proteins named here, by UniProt entry; tags and fusion partners are left off. Residues count along the entry.
UniProt Q14126, residues 50-1118: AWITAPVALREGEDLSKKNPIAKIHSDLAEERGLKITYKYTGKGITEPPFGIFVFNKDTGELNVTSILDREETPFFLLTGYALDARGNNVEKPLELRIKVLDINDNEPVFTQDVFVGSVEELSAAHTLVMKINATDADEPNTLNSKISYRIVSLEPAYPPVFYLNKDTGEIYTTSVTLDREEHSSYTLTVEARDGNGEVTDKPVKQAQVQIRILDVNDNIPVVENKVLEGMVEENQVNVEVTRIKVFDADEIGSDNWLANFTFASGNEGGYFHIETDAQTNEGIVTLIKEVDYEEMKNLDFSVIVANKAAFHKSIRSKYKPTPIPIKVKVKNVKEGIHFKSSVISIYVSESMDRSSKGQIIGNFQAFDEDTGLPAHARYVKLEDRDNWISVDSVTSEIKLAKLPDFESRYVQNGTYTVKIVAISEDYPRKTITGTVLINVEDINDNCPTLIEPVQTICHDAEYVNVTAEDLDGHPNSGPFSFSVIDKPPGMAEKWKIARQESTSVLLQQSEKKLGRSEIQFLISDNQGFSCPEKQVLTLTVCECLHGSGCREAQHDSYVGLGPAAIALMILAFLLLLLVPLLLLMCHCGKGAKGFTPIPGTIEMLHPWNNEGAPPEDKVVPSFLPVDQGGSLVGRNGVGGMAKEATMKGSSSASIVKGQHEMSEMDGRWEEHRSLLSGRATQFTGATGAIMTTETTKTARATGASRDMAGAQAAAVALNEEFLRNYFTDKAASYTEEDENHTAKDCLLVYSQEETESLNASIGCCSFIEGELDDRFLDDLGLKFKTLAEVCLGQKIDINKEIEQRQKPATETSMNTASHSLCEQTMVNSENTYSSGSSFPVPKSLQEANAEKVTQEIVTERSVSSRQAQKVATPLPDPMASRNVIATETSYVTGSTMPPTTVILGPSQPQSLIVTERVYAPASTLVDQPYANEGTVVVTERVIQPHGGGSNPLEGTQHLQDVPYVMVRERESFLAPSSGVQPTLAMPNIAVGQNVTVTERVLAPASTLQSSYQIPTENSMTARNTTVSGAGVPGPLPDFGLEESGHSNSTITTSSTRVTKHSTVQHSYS

In this assay the target is Desmoglein 2 (human (endogenous in Caco2)) (UniProt Q14126). The experiment in a line: proximity ligation; confluent Caco2^WT cells on coverslips, basal conditions or TNFα for 24h; primary antibodies mouse anti-Dsg2 with rabbit anti-PI-3-kinase, or mouse anti-Plakoglobin with rabbit anti-Dsg2; PLUS and MINUS probes; controls without primary antibodies and Caco2 Dsg2^-/- cells.

Results are given in words; binding and its absence hold for the method and conditions named. In cells and extracts the contact can be indirect. Some results given as binding are weak or reduced against the parent protein; the word gives no strength.

B1: Plakoglobin (protein, UniProt P14923 1-745)
chain: MEVMNLMEQPIKVTEWQQTYTYDSGIHSGANTCVPSVSSKGIMEEDEACGRQYTLKKTTTYTQGVPPSQGDLEYQMSTTARAKRVREAMCPGVSGEDSSLLLATQVEGQATNLQRLAEPSQLLKSAIVHLINYQDDAELATRALPELTKLLNDEDPVVVTKAAMIVNQLSKKEASRRALMGSPQLVAAVVRTMQNTSDLDTARCTTSILHNLSHHREGLLAIFKSGGIPALVRMLSSPVESVLFYAITTLHNLLLYQEGAKMAVRLADGLQKMVPLLNKNNPKFLAITTDCLQLLAYGNQESKLIILANGGPQALVQIMRNYSYEKLLWTTSRVLKVLSVCPSNKPAIVEAGGMQALGKHLTSNSPRLVQNCLWTLRNLSDVATKQEGLESVLKILVNQLSVDDVNVLTCATGTLSNLTCNNSKNKTLVTQNSGVEALIHAILRAGDKDDITEPAVCALRHLTSRHPEAEMAQNSVRLNYGIPAIVKLLNQPNQWPLVKATIGLIRNLALCPANHAPLQEAAVIPRLVQLLVKAHQDAQRHVAAGTQQPYTDGVRMEEIVEGCTGALHILARDPMNRMEIFRLNTIPLFVQLLYSSVENIQRVAAGVLCELAQDKEAADAIDAEGASAPLMELLHSRNEGTATYAAAVLFRISEDKNPDYRKRVSVELTNSLFKHDPAAWEAAQSMIPINEPYGDDMDATYRPMYSSDVPLDPLEMHMDMDGDYPIDTYSDGLRPPYPTADHMLA
For the molecule B1, the binding result is reported as “binds”.
